# Test: Metabolomics of fetal brain at E14.5
# Type: in vivo, C57Bl/6J mice
# Details: E14.5 fetal brain metabolite level; for fold of change ABX/SPF: ANOVA contrast ABX vs SPF; for fold of change GF/ABX: ANOVA contrast GF vs ABX; for fold of change GF/SPF: ANOVA contrast GF vs SPF; for fold of change GF/Sp: ANOVA contrast GF vs Sp; for fold of change Sp/ABX: ANOVA contrast Sp vs ABX; for fold of change Sp/SPF: ANOVA contrast Sp vs SPF
SMILES,fold of change ABX/SPF,fold of change GF/ABX,fold of change GF/SPF,fold of change GF/Sp,fold of change Sp/ABX,fold of change Sp/SPF
CCCCCCCCCCCCCC(O)CC(=O)OC(CC(=O)[O-])C[N+](C)(C)C (stereo not drawn) [compound 1539],0.82,0.73,0.60,0.70,1.04,0.86
C[N+](C)(C)CCCC(=O)[O-] [compound 1541],0.73,1.05,0.77,0.93,1.13,0.83
C[N+](C)(C)CC(O)CC(=O)[O-] (stereo not drawn) [compound 1542],0.90,1.05,0.95,0.99,1.06,0.95
CC(O)CC(=O)O (stereo not drawn) [compound 1547],1.05,3.16,3.32,4.03,0.79,0.82
CCCCCC(O)C(=O)O (stereo not drawn) [compound 1565],0.35,2.23,0.77,0.81,2.77,0.96
CCCCCCCCC(O)C(=O)O (stereo not drawn) [compound 1567],0.70,1.32,0.93,0.91,1.45,1.02
CCCCCCCC(O)CC(=O)O (stereo not drawn) [compound 1582],0.95,1.02,0.97,0.90,1.14,1.08
CCCCC[C@H](O)/C=C/C=C/C/C=C\CCCC(=O)O [compound 1711],0.40,1.61,0.64,0.92,1.75,0.69
CCCCCCCC/C=C\CCCCCCCC(=O)NCCO [compound 1718],0.83,0.87,0.72,0.92,0.95,0.78
CCCCCCCCCCCCCCCC(=O)NCCO [compound 1721],0.95,0.98,0.92,1.05,0.93,0.88
CCCCCCCCCCCCCCCCCC(=O)NCCS(=O)(=O)O [compound 1731],0.79,0.80,0.63,1.01,0.79,0.63
CCCCCCCCCCCCCCCC(=O)NCCS(=O)(=O)O [compound 1732],0.73,0.65,0.47,1.00,0.64,0.47
CCCCCC/C=C\CCCCCCCC(=O)NCCO [compound 1744],0.84,0.94,0.79,1.00,0.94,0.79
OC1C(O)C(O)C(O)C(O)C1O (stereo not drawn) [compound 1753],0.64,0.93,0.60,0.81,1.15,0.74
OC1C(O)C(O)C(O)C(O)C1O (stereo not drawn) [compound 1754],0.72,1.24,0.90,0.53,2.35,1.70
C[N+](C)(C)CCO [compound 1782],0.83,0.86,0.72,1.03,0.84,0.70
C[N+](C)(C)CCOP(=O)([O-])O [compound 1783],0.95,1.02,0.97,1.05,0.97,0.92

SMILES,fold of change ABX/SPF,fold of change GF/ABX,fold of change GF/SPF,fold of change GF/Sp,fold of change Sp/ABX,fold of change Sp/SPF
C[N+](C)(C)CCOP(=O)([O-])OP(=O)(O)OCC1OC(n2ccc(N)nc2=O)C(O)C1O (stereo not drawn) [compound 1784],0.66,1.18,0.77,0.82,1.43,0.94
C[N+](C)(C)CCOP(=O)([O-])OCC(O)CO (stereo not drawn) [compound 1786],0.76,1.24,0.94,0.92,1.34,1.02
NCCOP(=O)(O)O [compound 1788],0.82,0.98,0.80,0.91,1.08,0.88
NCCOP(=O)(O)OP(=O)(O)OCC1OC(n2ccc(N)nc2=O)C(O)C1O (stereo not drawn) [compound 1789],0.80,1.02,0.82,0.95,1.08,0.87
NCCOP(=O)(O)OCC(O)CO (stereo not drawn) [compound 1790],0.83,1.07,0.89,0.94,1.14,0.95
NC(COP(=O)(O)OCC(O)CO)C(=O)O (stereo not drawn) [compound 1791],0.81,0.93,0.75,0.91,1.02,0.83
O=P(O)(OCC(O)CO)OC1C(O)C(O)C(O)C(O)C1O (stereo not drawn) [compound 1792],0.87,0.84,0.74,0.88,0.96,0.84
C[N+](C)(C)[O-] [compound 1793],0.08,0.48,0.04,0.10,4.61,0.38
CCCCCCCCCCCCCCCC(=O)O[C@H](COC(=O)CCCCCCCCCCCCC)COP(=O)([O-])OCC[N+](C)(C)C [compound 1811],0.88,0.99,0.86,0.93,1.07,0.93
CCCCC/C=C\C/C=C\C/C=C\C/C=C\CCCC(=O)O[C@H](COC(=O)CCCCCCCCCCCCC)COP(=O)([O-])OCC[N+](C)(C)C [compound 1815],0.78,1.03,0.80,0.98,1.05,0.82
CCCCCCCCCCCCCCCC(=O)OCC(COP(=O)([O-])OCC[N+](C)(C)C)OC(=O)CCCCCCCCCCCCCCC (stereo not drawn) [compound 1827],0.86,1.02,0.88,0.97,1.05,0.91
CCCCCC/C=C\CCCCCCCC(=O)O[C@H](COC(=O)CCCCCCCCCCCCCCC)COP(=O)([O-])OCC[N+](C)(C)C [compound 1828],0.93,0.97,0.90,0.95,1.03,0.95
CCCCCCCCCCCCCCCCCC(=O)O[C@H](COC(=O)CCCCCCCCCCCCCCC)COP(=O)([O-])OCC[N+](C)(C)C [compound 1829],0.73,1.07,0.79,0.91,1.18,0.87
CCCCCCCC/C=C\CCCCCCCC(=O)O[C@H](COC(=O)CCCCCCCCCCCCCCC)COP(=O)([O-])OCC[N+](C)(C)C [compound 1831],0.87,1.01,0.88,0.96,1.05,0.91
CCCCC/C=C\C/C=C\CCCCCCCC(=O)O[C@H](COC(=O)CCCCCCCCCCCCCCC)COP(=O)([O-])OCC[N+](C)(C)C [compound 1834],0.99,1.00,0.99,1.09,0.92,0.91
CCCCC/C=C\C/C=C\C/C=C\CCCCC(=O)O[C@H](COC(=O)CCCCCCCCCCCCCCC)COP(=O)([O-])OCC[N+](C)(C)C [compound 1837],0.93,1.04,0.96,1.16,0.89,0.83
